Results are given in words; binding and its absence hold for the method and conditions named. Binding seen in cells or lysates may run through a third protein. A result given as binding can be weak or reduced; the word gives no strength.
How the values were obtained:
[1] = target: GST fusion of the entire C-terminal cytoplasmic tail of VGLUT1 (rat) (UniProt Q62634); assay: pull-down; 400 µg GST fusions of the VGLUT1 C-terminus on glutathione sepharose beads, rat brain extract in 100 mM Tris-HCl pH 7.5, 150 mM NaCl, 1 mM EGTA, 1% TX-100, 4°C 2 h; immunoblot (Fig. 6); only the target purified
[2] = target: GST fusion of the entire C-terminal cytoplasmic tail of VGLUT1 (rat) (UniProt Q62634); assay: pull-down; GST fusions of the VGLUT1 C-terminus on glutathione sepharose beads, incubated with extracts of COS7 cells transfected with myc-Lyn (2% TX-100); detected with antibody to myc, band intensity normalised to VG1; only the target purified
[3] = target: GST fusion of the entire C-terminal cytoplasmic tail of VGLUT1 (rat) (UniProt Q62634); assay: pull-down; GST fusions of the VGLUT1 C-terminus on glutathione sepharose beads, incubated with detergent-solubilized (2% TX-100) rat brain extract, RT 60 min; bound proteins by immunoblot, band intensity normalised to VG1 (Figs. 3C,D and 4B); only the target purified

Chains of the proteins cited; added tags and fusions are not shown. Lines headed by an entry give the natural chain unless they say otherwise; changes in a name come on top.
UniProt Q62634: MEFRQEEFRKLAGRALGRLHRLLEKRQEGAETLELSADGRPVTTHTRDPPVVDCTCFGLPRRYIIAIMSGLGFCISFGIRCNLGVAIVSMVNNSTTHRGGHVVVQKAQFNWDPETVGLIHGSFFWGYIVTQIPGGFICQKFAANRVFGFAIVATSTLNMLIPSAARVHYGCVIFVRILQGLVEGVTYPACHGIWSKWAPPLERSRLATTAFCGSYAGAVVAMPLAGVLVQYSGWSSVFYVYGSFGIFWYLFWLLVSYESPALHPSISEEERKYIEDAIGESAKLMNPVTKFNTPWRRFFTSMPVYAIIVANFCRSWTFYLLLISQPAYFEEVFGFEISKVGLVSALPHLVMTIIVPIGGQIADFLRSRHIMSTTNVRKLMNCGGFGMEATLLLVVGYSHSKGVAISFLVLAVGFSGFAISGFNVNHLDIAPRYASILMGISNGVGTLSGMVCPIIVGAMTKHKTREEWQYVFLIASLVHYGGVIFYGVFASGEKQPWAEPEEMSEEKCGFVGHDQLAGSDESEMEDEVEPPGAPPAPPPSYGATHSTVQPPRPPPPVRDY
UniProt O35179: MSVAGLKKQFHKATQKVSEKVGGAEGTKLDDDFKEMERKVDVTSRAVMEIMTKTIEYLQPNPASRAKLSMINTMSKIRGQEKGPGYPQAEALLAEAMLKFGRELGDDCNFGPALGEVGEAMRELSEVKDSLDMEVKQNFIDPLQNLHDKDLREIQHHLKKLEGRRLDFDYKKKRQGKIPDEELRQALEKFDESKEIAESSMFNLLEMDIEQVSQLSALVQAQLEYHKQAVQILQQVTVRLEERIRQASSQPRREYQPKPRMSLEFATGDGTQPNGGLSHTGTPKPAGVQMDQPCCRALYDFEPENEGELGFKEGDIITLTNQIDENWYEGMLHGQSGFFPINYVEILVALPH
UniProt P25911: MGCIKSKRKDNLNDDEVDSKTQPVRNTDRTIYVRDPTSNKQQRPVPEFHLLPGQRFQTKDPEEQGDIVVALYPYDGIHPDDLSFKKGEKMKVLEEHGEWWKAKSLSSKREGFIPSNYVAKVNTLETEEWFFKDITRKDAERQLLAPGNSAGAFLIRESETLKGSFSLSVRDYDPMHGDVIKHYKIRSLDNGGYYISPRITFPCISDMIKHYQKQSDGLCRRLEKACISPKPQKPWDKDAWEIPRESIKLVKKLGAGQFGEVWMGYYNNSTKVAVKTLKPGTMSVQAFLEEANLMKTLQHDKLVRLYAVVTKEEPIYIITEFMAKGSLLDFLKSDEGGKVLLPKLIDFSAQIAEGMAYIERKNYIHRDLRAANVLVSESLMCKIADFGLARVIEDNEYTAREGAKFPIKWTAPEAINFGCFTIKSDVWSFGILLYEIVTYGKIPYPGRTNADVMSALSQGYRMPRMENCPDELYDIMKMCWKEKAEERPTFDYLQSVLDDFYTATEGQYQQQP
UniProt Q62940: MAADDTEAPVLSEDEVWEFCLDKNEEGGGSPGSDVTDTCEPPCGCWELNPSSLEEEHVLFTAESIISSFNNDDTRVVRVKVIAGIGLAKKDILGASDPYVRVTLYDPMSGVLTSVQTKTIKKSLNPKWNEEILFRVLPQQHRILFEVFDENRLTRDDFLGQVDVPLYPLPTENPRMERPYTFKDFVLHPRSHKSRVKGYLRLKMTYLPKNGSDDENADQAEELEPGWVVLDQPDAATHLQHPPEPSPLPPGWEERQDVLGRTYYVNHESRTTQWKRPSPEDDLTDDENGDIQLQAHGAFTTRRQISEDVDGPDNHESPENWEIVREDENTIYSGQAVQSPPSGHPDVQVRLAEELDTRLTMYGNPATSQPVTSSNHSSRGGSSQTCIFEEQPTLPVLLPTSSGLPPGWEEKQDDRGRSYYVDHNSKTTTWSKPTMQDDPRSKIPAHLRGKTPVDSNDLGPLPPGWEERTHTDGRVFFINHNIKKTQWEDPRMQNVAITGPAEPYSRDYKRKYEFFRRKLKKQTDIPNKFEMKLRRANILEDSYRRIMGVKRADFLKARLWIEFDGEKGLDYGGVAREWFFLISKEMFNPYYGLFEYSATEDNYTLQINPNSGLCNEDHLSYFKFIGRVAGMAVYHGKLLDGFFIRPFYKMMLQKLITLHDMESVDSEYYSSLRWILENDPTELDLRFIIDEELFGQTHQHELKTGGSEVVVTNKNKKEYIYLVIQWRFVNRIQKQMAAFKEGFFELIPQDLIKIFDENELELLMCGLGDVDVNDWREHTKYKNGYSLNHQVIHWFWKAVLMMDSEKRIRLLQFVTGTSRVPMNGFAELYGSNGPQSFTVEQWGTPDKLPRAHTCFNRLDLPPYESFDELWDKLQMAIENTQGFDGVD
UniProt O35180: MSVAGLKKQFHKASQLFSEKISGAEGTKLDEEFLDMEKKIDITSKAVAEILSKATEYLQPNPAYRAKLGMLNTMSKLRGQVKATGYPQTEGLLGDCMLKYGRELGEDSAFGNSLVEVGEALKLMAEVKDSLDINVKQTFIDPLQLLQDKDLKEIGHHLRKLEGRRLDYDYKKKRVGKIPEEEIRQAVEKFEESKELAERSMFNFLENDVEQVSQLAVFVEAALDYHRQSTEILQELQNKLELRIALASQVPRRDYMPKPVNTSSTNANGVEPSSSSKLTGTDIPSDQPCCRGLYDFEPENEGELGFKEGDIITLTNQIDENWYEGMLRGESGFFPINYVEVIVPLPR

Row | Substance | binding [1] | binding [2] | binding [3]
1 | endophilin 1 from rat brain extract (from UniProt O35179 1-352) | binds |  | 
2 | myc-tagged Lyn (from UniProt P25911 1-512) (enzyme) |  | binds | 
3 | Nedd4 from rat brain extract (from UniProt Q62940 1-887) (enzyme) | binds |  | binds
4 | endophilin 3 from rat brain extract (from UniProt O35180 1-347) | binds |  | 

— article PMC4198130
